Over roughly 33,000 sequences, “E-score (-0.5 to 0.5)” has its median near -0.016; the highest 2% begin near 0.3. The list shows a part of the results.
molecular target: T1, Yer184c (UniProt P39961); experiment: PBM E-score (8-mer binding enrichment) (E-score (-0.5 to 0.5)); higher = stronger / more preferred TF binding; settings: protein concentration: 100 nM; construct: GST-full length
T1 sequence: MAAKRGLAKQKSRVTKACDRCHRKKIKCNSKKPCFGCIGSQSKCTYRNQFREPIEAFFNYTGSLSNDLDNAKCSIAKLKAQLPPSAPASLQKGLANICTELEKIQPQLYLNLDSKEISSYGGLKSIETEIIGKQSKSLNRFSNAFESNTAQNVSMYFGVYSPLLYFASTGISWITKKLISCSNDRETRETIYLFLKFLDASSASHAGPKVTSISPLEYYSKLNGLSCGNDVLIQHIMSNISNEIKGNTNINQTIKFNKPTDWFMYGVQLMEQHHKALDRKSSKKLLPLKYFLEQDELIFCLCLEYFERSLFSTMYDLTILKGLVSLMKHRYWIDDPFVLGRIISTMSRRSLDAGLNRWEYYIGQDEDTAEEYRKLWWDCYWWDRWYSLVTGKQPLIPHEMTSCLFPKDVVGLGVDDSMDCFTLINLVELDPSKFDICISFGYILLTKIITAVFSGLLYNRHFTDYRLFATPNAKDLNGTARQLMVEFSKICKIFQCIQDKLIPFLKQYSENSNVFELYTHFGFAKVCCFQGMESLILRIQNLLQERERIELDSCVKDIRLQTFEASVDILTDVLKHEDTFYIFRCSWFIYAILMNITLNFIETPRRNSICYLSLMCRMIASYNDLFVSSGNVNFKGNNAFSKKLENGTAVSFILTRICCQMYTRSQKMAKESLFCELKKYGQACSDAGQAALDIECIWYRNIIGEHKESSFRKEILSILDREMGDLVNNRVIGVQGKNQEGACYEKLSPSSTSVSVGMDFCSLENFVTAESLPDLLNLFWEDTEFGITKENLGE
Description: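 Universal 'all 10-mer' protein binding microarrays (Agilent AMADID 015681) probed with GST-tagged S. cerevisiae TFs (full-length or DBD) made by in vitro transcription/translation (PURExpress), about 100-200 nM. Bound TF was detected with fluorescent anti-GST. Each ungapped 8-mer (which stands for itself and its reverse complement) is scored by the PBM enrichment score (E-score), a modified Wilcoxon-Mann-Whitney statistic from -0.5 to +0.5, computed with the Universal PBM Analysis Suite. Scale: above 0.35 generally sequence-specific binding.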

Row | Sequence | PBM E-score
1 | CCATCGCA | -0.234
2 | GGCCTATA | -0.119
3 | AGTGCGGC | 0.117
4 | AATTTTAG | 0.0221
5 | ATACGCTC | 0.0288
6 | CATCTGCG | -0.061
7 | AGTTGAAA | 0.105
8 | CGTTTTGA | 0.18
9 | CCGACAAG | 0.11
10 | CCCTCTCC | -0.291
11 | ATATGTGA | 0.0305
12 | CCAGTGGA | -0.133
13 | AGATGCGA | -0.0674
14 | CTCCGGGA | 0.205
15 | CCAAGAGA | -0.0841
16 | GAGTAATA | 0.284
17 | ACATTACT | 0.0564
18 | CCATTAAC | 0.0119
19 | AGACTCTC | -0.138
20 | TCGTGGAA | 0.0999
21 | AAGAAGCC | 0.208
22 | CGAGATTA | 0.27
23 | CTTCACAC | -0.147
24 | AGGTTCAA | 0.0797
25 | ATAGTAGG | 0.0295

Row | Sequence | PBM E-score
26 | TACCTAAA | -0.0208
27 | GGGCGGAC | -0.0401
28 | CTGTGCGC | -0.0421
29 | GTTGAAAC | 0.192
30 | ATAACTGA | 0.151
31 | TGGCACAA | -0.061
32 | GGGCTTTA | -0.244
33 | CACTTGTC | -0.0593
34 | ACGCTGAA | -0.0417
35 | CTTATGGC | -0.0235
36 | GTCCAACA | -0.0865
37 | AAGACCGT | -0.163
38 | TAACTCCA | -0.147
39 | GCGCCTCC | -0.102
40 | CTAGCCGA | 0.288
41 | AGTCCCGA | -0.0308
42 | CTCGCTGC | -0.0365
43 | AGTTAGGC | -0.0842
44 | AACGTCAT | -0.0922
45 | AGCATCAA | 0.114
46 | ACGTCCGG | 0.162
47 | AAGCGAGA | -0.192
48 | ACCTCGGA | 0.291
49 | GCGGCACA | 0.129
50 | GACCCGGC | 0.206

Row | Sequence | PBM E-score
51 | GGTTCGGA | 0.281
52 | CACGTTGA | 0.0141
53 | ATGAGCGA | 0.131
54 | AGCAAACG | 0.0263
55 | ATTTAACC | 0.179
56 | GTTTAGCA | 0.0727
57 | TCTACAGA | 0.0591
58 | ATGGGATG | -0.217
59 | ACCTAAGG | -0.233
60 | ATTTTCGC | 0.111
61 | CTGGCACA | -0.219
62 | CAAATGAC | -0.0388
63 | GCGTAGTA | -0.26
64 | AATAGCAC | -0.276
65 | GCCAGGCC | -0.0667
66 | AACTCAAC | 0.171
67 | GTCATCAA | -0.079
68 | CTCTGGAA | -0.0374
69 | ACAACAAA | 0.248
70 | CCTCGGCA | 0.367
71 | ACTACTTA | 0.0197
72 | TCCCGGGA | 0.337
73 | GGCCAGAA | 0.00094
74 | CGCTTCGA | 0.103
75 | CAGACGAA | 0.191

Row | Sequence | PBM E-score
76 | CGAGCAAA | 0.16
77 | AAACCGCG | 0.25
78 | CCGAGATA | 0.275
79 | CCCCTAGA | -0.34
80 | AGAAATCA | 0.201
81 | CCACACAC | 0.0377
82 | AACGCGCG | 0.135
83 | CTCCGGAC | 0.328
84 | ACCGAGGC | -0.0788
85 | GGTCTCGA | -0.0235
86 | GACGGTCA | -0.1
87 | ATGGAAAT | 0.144
88 | GGCAGCGA | -0.0163
89 | GGGATACA | 0.0377
90 | AAGCACCG | -0.149
91 | ATAGGGAT | -0.206
92 | GCGCCTGA | -0.049
93 | CACTGGAC | 0.0432
94 | GCGAGGAC | -0.246
95 | CGACGGAA | 0.171
96 | GTCACAAC | 0.16
97 | AGTTCATA | 0.0391
98 | CTTGCTTC | 0.0781
99 | AGTGATGG | -0.0946
100 | CACCTGGG | -0.237

Row | Sequence | PBM E-score
101 | AGCCACGA | -0.0889
102 | TAGAAAAA | 0.0993
103 | GAACGTCC | 0.078
104 | AACTATGA | 0.0401
105 | CCATCGAC | -0.103
106 | ATGGTAAC | 0.00478
107 | ATCGATAC | 0.0137
108 | AGGATAAC | -0.197
109 | AGGCCATA | -0.308
110 | ACTTAGTG | 0.0728
111 | CTACGCAA | -0.00413
112 | CCTAGCAG | -0.163
113 | GTTGGTTA | -0.0114
114 | AGTTTACG | 0.104
115 | AGTCTTAT | 0.0156
116 | CATGCTTC | 0.0497
117 | CGCGGTCC | 0.0964
118 | AAATGAAC | 0.0919
119 | GACAGATA | 0.06
120 | GTCATTAA | 0.194
121 | CAGCTACG | -0.127
122 | GCCACGTA | -0.318
123 | GGGAAATA | 0.0562
124 | CTATCTGC | -0.139
125 | CCCGCAGC | -0.108

61 entries from above, as tab-separated lines.
Row	Sequence	PBM E-score
44	AACGTCAT	-0.0922
45	AGCATCAA	0.114
46	ACGTCCGG	0.162
47	AAGCGAGA	-0.192
48	ACCTCGGA	0.291
49	GCGGCACA	0.129
50	GACCCGGC	0.206
51	GGTTCGGA	0.281
52	CACGTTGA	0.0141
53	ATGAGCGA	0.131
54	AGCAAACG	0.0263
55	ATTTAACC	0.179
56	GTTTAGCA	0.0727
57	TCTACAGA	0.0591
58	ATGGGATG	-0.217
59	ACCTAAGG	-0.233
60	ATTTTCGC	0.111
61	CTGGCACA	-0.219
62	CAAATGAC	-0.0388
63	GCGTAGTA	-0.26
64	AATAGCAC	-0.276
65	GCCAGGCC	-0.0667
66	AACTCAAC	0.171
67	GTCATCAA	-0.079
68	CTCTGGAA	-0.0374
69	ACAACAAA	0.248
70	CCTCGGCA	0.367
71	ACTACTTA	0.0197
72	TCCCGGGA	0.337
73	GGCCAGAA	0.00094
74	CGCTTCGA	0.103
75	CAGACGAA	0.191
76	CGAGCAAA	0.16
77	AAACCGCG	0.25
78	CCGAGATA	0.275
79	CCCCTAGA	-0.34
80	AGAAATCA	0.201
81	CCACACAC	0.0377
82	AACGCGCG	0.135
83	CTCCGGAC	0.328
84	ACCGAGGC	-0.0788
85	GGTCTCGA	-0.0235
86	GACGGTCA	-0.1
87	ATGGAAAT	0.144
88	GGCAGCGA	-0.0163
89	GGGATACA	0.0377
90	AAGCACCG	-0.149
91	ATAGGGAT	-0.206
92	GCGCCTGA	-0.049
93	CACTGGAC	0.0432
94	GCGAGGAC	-0.246
95	CGACGGAA	0.171
96	GTCACAAC	0.16
97	AGTTCATA	0.0391
98	CTTGCTTC	0.0781
99	AGTGATGG	-0.0946
100	CACCTGGG	-0.237
101	AGCCACGA	-0.0889
102	TAGAAAAA	0.0993
103	GAACGTCC	0.078
104	AACTATGA	0.0401

(list continues)

Row | Sequence | PBM E-score
126 | CAACGGCA | 0.0695
127 | GGCAGTTA | -0.231
128 | GATCGCAA | 0.0463
129 | GACAGCCC | -0.0787
130 | CCGTAGGC | 0.0871
131 | ACATGCAC | -0.149
132 | GGATAGTA | 0.12
133 | CTGATTAC | 0.0851
134 | GTCACCGA | 0.0454
135 | TATTAGCA | 0.157
136 | CCCAGTTA | -0.231
137 | CACATGTA | -0.0674
138 | ACCGCCCG | 0.0393
139 | CTGTATTA | 0.154
140 | AGTCTCAT | -0.115
141 | CGTTGGTA | 0.0612
142 | GACTTTGA | 0.0566
143 | CCCAGTGA | -0.308
144 | ATAATATC | 0.188
145 | AAGTCGGG | -0.0402
146 | CTCGACAC | 0.00104
147 | CTATTGGA | 0.045
148 | CTAGGGAA | -0.0485
149 | AGTGCAAC | -0.0368
150 | AAACGCAA | 0.127

Row | Sequence | PBM E-score
151 | GTGTGGTA | -0.081
152 | GTGCTCGA | -0.0616
153 | CGCAATAC | 0.132
154 | GAGCATCC | -0.111
155 | GGTCGATA | -0.0139
156 | CGACTCCA | -0.221
157 | GAGATGAC | -0.0645
158 | CCCCATCG | -0.0742
159 | ATACGGCC | 0.153
160 | CGGACATA | 0.277
161 | GCCAAATA | -0.0118
162 | GTGGTGCA | -0.0956
163 | GCCGATCC | 0.133
164 | CCATCTGC | 0.0155
165 | AACCAGAC | -0.0727
166 | GGATACTA | 0.197
167 | ACACAGGC | -0.139
168 | GAACGTTA | -0.0507
169 | AAGAGTGG | -0.256
170 | GATCCCCC | -0.328
171 | GGAACCAA | 0.139
172 | CCGTCCAG | 0.122
173 | TAACGCAA | 0.104
174 | CCGCGTAG | 0.00242
175 | GCTAAGCC | 0.023

Retrieved one by one from the list above (6):
Row | Sequence | PBM E-score
156 | CGACTCCA | -0.221
172 | CCGTCCAG | 0.122
162 | GTGGTGCA | -0.0956
166 | GGATACTA | 0.197
155 | GGTCGATA | -0.0139
157 | GAGATGAC | -0.0645

(next part)

Row | Sequence | PBM E-score
176 | GATGATGC | -0.0188
177 | GTGCCATA | -0.235
178 | CGCAACAC | 0.0186
179 | GCGCAACC | -0.0711
180 | CACGGTAA | 0.145
181 | CATTACGG | 0.0073
182 | GGTCTAGA | -0.137
183 | GCGCATAC | -0.0925
184 | CTCCCCAA | -0.209
185 | AATTATTA | 0.19
186 | CGCTAGCC | -0.0896
187 | CTCCTCAA | -0.0877
188 | CCGATATA | 0.122
189 | GTTCCCAA | 0.0489
190 | ACGTCTAA | -0.0965
191 | CCTTTTCG | 0.155
192 | ATCTAAAG | 0.118
193 | AGTTGCCG | 0.118
194 | CCGTTCAG | 0.154
195 | CTTAGGCC | -0.0567
196 | CCAGTGCC | -0.213
197 | ATTTTGCA | 0.136
198 | GACCGGCC | 0.203
199 | AGCCGTAT | 0.214
200 | CCGCGCAC | 0.00358

Row | Sequence | PBM E-score
201 | AATCAAAA | 0.211
202 | CAATTAAC | 0.106
203 | CCCGCCGG | 0.237
204 | ACGTAGTC | -0.251
205 | GAGGCAGA | -0.245
206 | ACGCAGCC | -0.0498
207 | AAATTAGT | 0.237
208 | AAAAGCCG | 0.244
209 | GACAACAA | 0.08
210 | AGAGATAT | -0.122
211 | AGTGAAGA | -0.00891
212 | GAGTGCAC | -0.0537
213 | AATTTTCC | 0.295
214 | AGCGGAAG | 0.178
215 | AACATTTA | 0.0843
216 | AGCCATGA | -0.141
217 | GGGAGCCC | -0.346
218 | TAACTTCA | 0.172
219 | CTGTTGTA | 0.0492

— the supplement of paper PMC3334620
